PubChem BioAssay AID1259308 | NCATS – 2017
Here is an unselected part of about 59,000 deposited reagents. About 1,510 of them (2.6%) count as active. 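Calls use total luciferase alone and ignore viability, so some active siRNAs may act by altering cell number.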 A number with no mark means an inactive call. The numbers tell different reagents against one gene apart. Not all columns of the deposit are shown. Reagent sequences are not shown.

- Test: 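Knock-downs that increase output of a recombinant reporter protein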 (primary screen)
- System: human HEK293 embryonic kidney cells stably expressing firefly luciferase (HEK-CMV-Luc2-Hygro)
- Reagents: single siRNA against human genes, 0.8 pmol siRNA per well
- Time to read-out: 72 h
- Read-out: 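Luciferase light (ONE-Glo) measured on one replicate plate set and viability (CellTiter-Glo) on the other, scaled to a negative control siRNA, with robust z-scores and luciferase per cell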
- Direction: total luciferase, z-score: higher = more reporter protein produced
- Call rule: 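Active when the median/MAD z-score for overall luciferase is greater than 3; a gene was taken forward for validation with new siRNAs if at least two of its three siRNAs passed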
- Calls: active = raised luciferase; inactive = no rise

total luciferase, z-score | gene | reagent no.
0.828 | CNOT7 | 1
0.564 | CNOT7 | 2
0.362 | CNOT7 | 3
-0.747 | CUX1 | 1
-1.77 | CUX1 | 2
-1.35 | CUX1 | 3
-0.182 | FOXD4L4 | 1
-1.07 | FOXD4L4 | 2
-0.021 | FOXD4L4 | 3
0.107 | TMEM82 | 1
0.154 | TMEM82 | 2
0.934 | TMEM82 | 3
0.386 | KAT6A | 1
-2.57 | KAT6A | 2
-0.706 | KAT6A | 3
0.364 | CLEC4F | 1
-1.36 | CLEC4F | 2
-0.951 | CLEC4F | 3
-0.653 | GYS1 | 1
1.62 | GYS1 | 2
-1.12 | GYS1 | 3
0.0872 | FIZ1 | 1
-0.799 | FIZ1 | 2
-0.295 | FIZ1 | 3
-0.00793 | GPD1L | 1
-0.156 | GPD1L | 2
0.133 | GPD1L | 3
0.443 | ATL3 | 1
-0.0251 | ATL3 | 2
-0.68 | ATL3 | 3
3.27 (active) | CKS1B | 1
-0.14 | CKS1B | 2
0.0894 | CKS1B | 3
1.11 | CDH20 | 1
-0.337 | CDH20 | 2
3.96 (active) | CDH20 | 3
-0.32 | CYP27A1 | 1
-0.605 | CYP27A1 | 2
-1.09 | CYP27A1 | 3
-1.16 | UNC5B | 1
-0.444 | UNC5B | 2
-0.902 | UNC5B | 3
0.231 | RNF144A | 1
-0.716 | RNF144A | 2
1.92 | RNF144A | 3
1.87 | CD226 | 1
-0.268 | CD226 | 2
0.499 | CD226 | 3
-1.14 | INHBA | 1
-1.13 | INHBA | 2
-1.98 | INHBA | 3
-0.546 | LOC646853 | 1
0.104 | LOC646853 | 2
0.474 | LOC646853 | 3
-0.752 | KIF23 | 1
0.128 | KIF23 | 2
-0.228 | KIF23 | 3

Active calls (from the list above):
total luciferase, z-score | gene | reagent no.
3.27 (active) | CKS1B | 1
3.96 (active) | CDH20 | 3
